The results are deposited in PubChem (AID1745848; NCATS, 2022).

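HEK-293 cells carrying an ATXN2-luciferase reporter; luminescence signal loss after 24 h of compound exposure, with a parallel cell viability readout.
Compounds were tested as a dilution series from about 0.0037 to 57 µM.
The number is the fitted half-maximal inhibitory concentration (AC50); a lower value means a more potent inhibitor.
Calls come from curve class and activity score: actives score 40–100, while inconclusive compounds (weak, partial, poorly fitted or single-point curves) score 1–39.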

Values are in µM.
Every entry below has the call inconclusive.
Only part of the assay is shown, chiefly results filed as inconclusive.
A potency from a partial, single-point or poor curve is only a rough figure.
Activity scores are not listed here.

O=C(COc1ccc(Br)cc1CO)Nc1ccc(S(=O)(=O)N2CCCCC2)cc1 gave Potency 15.85 µM (inhibitor, partial curve, poor fit). With CCOC(=O)c1c(-n2cccc2)sc2c1CCCC2=O the assay gave Potency 5.012 µM (inhibitor, partial curve, poor fit). Nc1ccn([C@@H]2O[C@H](CO)[C@@H](O)[C@@H]2O)c(=O)n1 gave Potency 1.585 µM (inhibitor, partial curve). O=C(NC(c1ccc(Cl)cc1)c1cc(Cl)c2cccnc2c1O)c1cccnc1 (configuration not stated) gave Potency 3.981 µM (inhibitor, full curve, poor fit).

Result for CCc1ccc(OCC(=O)N/N=C(\C)c2ccc(O)cc2O)cc1 was Potency 2.818 µM (inhibitor, partial curve). Nc1nc(NCCCN2CCOCC2)nc(Nc2cccc(Cl)c2)c1[N+](=O)[O-] read Potency 3.548 µM (inhibitor, partial curve). Cc1ccc(/C=N/Nc2ccnc3cc(Cl)ccc23)c(C)c1 read Potency 22.39 µM (inhibitor, partial curve, poor fit). Result for Cc1cc(N/N=C\c2ccc(Br)cc2)nc(-n2nc(C)cc2C)n1 was Potency 2.818 µM (inhibitor, full curve, poor fit).

Result for N#Cc1nc(Cc2cccc3ccccc23)oc1NCc1ccc(F)cc1 was Potency 28.18 µM (inhibitor, single point). Result for COC(=O)C1=C(C)N(c2ccc(Cl)c(Cl)c2)C(=O)C1 was Potency 3.981 µM (inhibitor, single point). Cc1ccc(Cc2cnc(NC(=O)/C(C#N)=C/c3ccc(-c4cccc([N+](=O)[O-])c4)o3)s2)cc1 read Potency 17.78 µM (inhibitor, partial curve, poor fit). Result for O=C(Nc1cnn(C23CC4CC(CC(C4)C2)C3)c1)c1cnn2c(C(F)(F)F)cc(-c3ccco3)nc12 was Potency 31.62 µM (inhibitor, single point).

Result for CC(C)(C)c1ccc(OCCn2nc(C(=O)O)c3ccccc3c2=O)cc1 was Potency 15.85 µM (inhibitor, single point). With O=[N+]([O-])c1cc(Cl)c(O)c2ncccc12 the assay gave Potency 3.548 µM (inhibitor, full curve, poor fit). CS(=O)(=O)N(CC(O)CON=C1c2ccccc2-c2ccccc21)c1ccc(F)cc1 (configuration not stated) read Potency 3.162 µM (inhibitor, single point). COc1ccc(C(=O)/C=C/c2cccc(OCc3ccccc3)c2)cc1CSCC(=O)O gave Potency 3.162 µM (inhibitor, partial curve).

O=C(Oc1c(CN2CCOCC2)cc(Cl)c2cccnc12)c1ccccc1F read Potency 3.548 µM (inhibitor, full curve, poor fit). With CN(C)CCOc1nc(-c2ccccc2)nc2c1oc1ccccc12 the assay gave Potency 17.78 µM (inhibitor, partial curve, poor fit). With Cc1nc(SCc2ccc(C(=O)O)cc2)nc2c1CCCC2 the assay gave Potency 2.818 µM (inhibitor, partial curve). Result for COCc1cc(CN2CCCC2)c(O)c2ncccc12 was Potency 3.548 µM (inhibitor, partial curve).

With N=c1ccn(CC(=O)c2ccc(-c3ccccc3)cc2)cc1 the assay gave Potency 1.585 µM (inhibitor, partial curve, poor fit). O=C(CNc1cccc(C(F)(F)F)c1)Nc1cccc(S(=O)(=O)N2CCCC2)c1 gave Potency 17.78 µM (inhibitor, partial curve, poor fit). CN(Cc1ccccc1)C(=O)c1ccc(Nc2nc(C(N)Cc3ccccc3)cs2)nc1 (configuration not stated) read Potency 11.22 µM (inhibitor, partial curve, poor fit). With Nc1c(C(=O)NCCc2ccccc2)c2nc3ccccc3nc2n1CCN1CCOCC1 the assay gave Potency 31.62 µM (inhibitor, partial curve, poor fit).

C[C@@H]1CN([C@@H](C)CO)S(=O)(=O)c2ccc(C#CC3CCCCC3)cc2O[C@@H]1CN(C)Cc1cccnc1 read Potency 31.62 µM (inhibitor, single point).

The first 2 entries again:

Compound	Potency (µM)	remark
O=C(COc1ccc(Br)cc1CO)Nc1ccc(S(=O)(=O)N2CCCCC2)cc1	15.85	inhibitor, partial curve, poor fit
CCOC(=O)c1c(-n2cccc2)sc2c1CCCC2=O	5.012	inhibitor, partial curve, poor fit